Experimental data published in PubChem BioAssay AID1347426 (Functional Genomics Laboratory (NCATS/FGL), 2020).
Out of some 31,000 sequences screened, about 1,400 (4.5%) were called active.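 How the source made its calls: active means median seed-adjusted z-score above 1 or below -1; inactive means the rest.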 The list shows a part of the results.

assay: Novel Modifiers of Survival Motor Neuron (SMN) Protein: Gene Identification via Genome-wide siRNA Screen; settings: HEK293T SMN2-luciferase reporter, siRNA knockdown, 72 h; actives lie on both sides;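 further: luminescence tracks full-length SMN protein made from the SMN2 reporter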
How it was run: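 siRNA screen, 10418 genes ×3 siRNAs; 1 pmol/well, lipid reverse transfection into HEK293T SMN2-luc reporter line. 72 h, 37 °C, 5% CO2; ONE-Glo readout. Data: neg-ctrl normalized, log10, MAD; hit = MAD >1.0 or < -1.0.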

| Sequence | median seed-adjusted z-score |
| --- | --- |
| GAAUCUCGUUGGUCCUGUUTT against GLMN | inactive: 0 |
| AGACCUUCAUCAAAAACAUTT against MYC | inactive: -0.543 |
| CAACGAAAAUCUAAAUGCATT against HMMR | inactive: 0.389 |
| CCAGUGAGGUUACCACUUATT against ZCCHC13 | inactive: -0.297 |
| AGACCUAGCUUUAGCACAATT against ZFAND2B | inactive: 0 |
| CGCUUUAACUGGAAGCUCUTT against ABCB8 | inactive: -0.558 |
| CGCAGCUGCUUUCCUAAAATT against BAHD1 | inactive: 0.376 |
| GUUUCUUGGUAUACCGUAATT against BRPF1 | inactive: 0 |
| GGACUCUAUUGAUAGGGAATT against PLA2G7 | inactive: 0.292 |
| UCCUCGAGCAGUUCCGUAATT against TUBG2 | inactive: 0 |
| GAACCACACGCAGAUCAGATT against GAL3ST2 | inactive: 0 |
| GAAGCUGGACAGCUGUAAATT against PLA2G1B | inactive: -0.411 |
| CAAAUGUCAUGCAGACUUUTT against BHMT2 | inactive: -0.0704 |
| GCCCAUUGCUGCAAAUGCATT against VSX2 | inactive: -0.333 |
| GGAAGAAAAUAGUGCUGCATT against BARX1 | active: 1.63 |
| GGUAGACCUUUAUUGGGUATT against LMO2 | inactive: 0 |
| GCCUAGAUGAGCGAAUUUATT against LSM3 | active: -1.36 |
| UCUACAAGCUGGACCCUGATT against MYO1G | inactive: -0.907 |
| GCUCCGAAGUGUUUACAAUTT against DQX1 | inactive: -0.297 |
| AGAUCCUUCCUACCCUCAATT against GPX3 | inactive: 0.193 |
| CGUGAAGCACGUGUACAGATT against KCTD2 | inactive: 0.133 |
| GCUGGACCGUAAAAUUGAATT against PSMC4 | inactive: -0.361 |

| Sequence | median seed-adjusted z-score |
| --- | --- |
| GGGUUUUGCUGACAGCUCATT against ZNF48 | inactive: -0.116 |
| GGUCGAAGUGUACCCAGUATT against USP11 | inactive: -0.0327 |
| AGAGAUUCCUAUUGAAGGATT against TRIAP1 | inactive: 0.253 |
| GGCCGUCUAUAAUGCGAGATT against PLCL1 | inactive: 0.000254 |
| GCAACUUCUUAAGACUAAATT against DBR1 | inactive: 0.438 |
| GGUCAUAGAAGGUUAUGAATT against CCT8 | inactive: -0.161 |
| GAUGGAGAGUAACCGCAGATT against TLX1 | inactive: -0.815 |
| GUCUUGUAGUGGAGUGGAATT against VDAC3 | inactive: 0.646 |
| GAAUCAGCUUAGUCAAUGATT against SUV39H2 | inactive: -0.279 |
| CGCAAGGUAUUAACAAUCUTT against PPEF2 | inactive: 0.354 |
| AGGCUACCAUGACUAUUGATT against PPM1G | inactive: 0.073 |
| CCACUACAACGGCACUUUUTT against FKBP10 | inactive: 0.229 |
| GCUCCACCGAUGACAAGAATT against ZNF683 | inactive: -0.452 |
| CAUCAAAACUUGGAGAGCATT against FN3K | inactive: -0.508 |
| AGAACAUAGAUGUUUUGGATT against VNN3 | inactive: 0.343 |
| AGAUCGUGCAGAUGAGUAATT against DGKQ | inactive: -0.0985 |
| GAGCAUUACGAAAAGGACATT against SLC22A16 | inactive: 0.0878 |
| CAGCUGAUCCGAUUCCUGATT against IL4 | inactive: -0.192 |
| AGGGUUUUGUGAACCAGAATT against HYAL2 | inactive: 0.056 |
| GUACCUCGUAAAUCACGAATT against NFAT5 | inactive: 0.106 |
| CAUCCGAGCUUAUUGUACATT against TTPA | inactive: -0.208 |
| GGAAGAGUUGAAGCACAUUTT against CALN1 | inactive: 0.0753 |

| Sequence | median seed-adjusted z-score |
| --- | --- |
| GGAAGAUCCAAAUCCGCUATT against PPP1R13B | inactive: 0.0943 |
| GCUUUCAACGGGUCUGUCATT against P2RX4 | inactive: 0.467 |
| CCCUUCUCAUUAGUAAGAUTT against TUBB4Q | inactive: -0.0288 |
| CGGUUUCUACAUGCAGAGATT against HSPA1A | inactive: -0.833 |
| CUAUAAGUCUAGUAGCAAATT against WNK2 | inactive: 0.212 |
| GCACUUUCAUAGACAACGATT against PON2 | inactive: 0 |
| GCAAGAGAAUUAGAUCAGATT against SLC16A12 | inactive: 0.0219 |
| GCGAGUACAUAGAUCGGAATT against ZDHHC23 | inactive: -0.536 |
| CAGUGCACCAGAUCCAUAATT against MPP1 | inactive: -0.0762 |
| AUCGAAUCCUGAUACAGCATT against IDI2 | inactive: 0.578 |
| GGACCAUACCCAUUGUCCATT against SHROOM1 | inactive: 0.0461 |
| GACCGGCAAUUGUAGUACUTT against USO1 | inactive: 0.21 |
| GCACAGUUCUACUCGAAAUTT against PCDHA3 | inactive: 0.311 |
| CAGAGACAAUGAUAUCGCATT against TNN | inactive: -0.122 |
| GAGACUUAAUUAGACGAAUTT against OSBPL11 | inactive: 0.535 |
| GGCAAGUCUGGAUAACGAATT against RIPK3 | inactive: 0.123 |
| CACUCAUUUAUGAUGGAAATT against POLR3F | inactive: 0 |
| GGAAGGUUAGUGAUCGCUUTT against EXTL1 | inactive: 0 |
| GCCGCAUCGUAGCUCGUAATT against RRAD | inactive: -0.267 |
| GGAUGUUGAUCAGAUGUUUTT against RAB3IP | inactive: -0.191 |
| GCUCCACCGAGAUUCCUGATT against TCEB1 | active: 1.08 |
| GAAUGAUCGAUUCAACUAUTT against TTBK2 | inactive: 0.423 |

| Sequence | median seed-adjusted z-score |
| --- | --- |
| CCGUUCAACCUGACAGUAUTT against JAG1 | inactive: -0.32 |
| GGAGGAGAGAAAUUCGACATT against MGRN1 | inactive: -0.318 |
| GGACGAAAGUGUGAACUAUTT against KCTD18 | inactive: -0.0473 |
| GAGGAUUACUAAUUGAUCUTT against CHM | inactive: 0.743 |
| CACACCUCGUUGGACAUCATT against ZNF808 | inactive: 0.138 |
| GAACUUUGUUGGGAGAAGUTT against TIMM8A | inactive: 0.173 |
| GCUGCUUCAGACUACCAAATT against TXNDC9 | inactive: -0.176 |
| CGCCCAACCUUACUACCUUTT against TXNDC14 | active: -2.39 |
| CUACAACUCUCCAAACGAATT against ACAD11 | inactive: -0.679 |
| GGUUUGACAUGACACCUAATT against GFRA2 | inactive: 0.363 |
| UGAUCAAAUUCACAACCAATT against UBE2L6 | inactive: -0.455 |
| AGCCCUAUGUCAUCUCCUATT against ALDH2 | inactive: -0.216 |
| AGCAUGCACUGAUCAGUUUTT against ACSL6 | inactive: -0.0934 |
| CCACUGUUGGUGAUCCAAUTT against COL12A1 | inactive: 0.00422 |
| GAUUGGAAUCUAAUAACUATT against FGF2 | inactive: 0.0208 |
| GGAGAAAAACUAUAUGAAUTT against ZNF585B | inactive: 0.158 |
| GCAGAACUCUAAGGAAAGATT against HINT3 | inactive: 0 |
| GCAGCAUGAGAAUGUCAAATT against GPD1 | inactive: 0.558 |
| GCAUUAAGCCUGCAACUCATT against ZNF532 | inactive: -0.0289 |
| GCACCCUAGUUAUCGCUGATT against PALLD | inactive: -0.307 |
| GAAUCAUAAUCGCUCCUUUTT against SPRR1A | inactive: -0.0536 |
| GCAAGAGUAUCUAAAGAUATT against SAAL1 | inactive: 0.00224 |

Single values from above.
For median seed-adjusted z-score, GCAGCAUGAGAAUGUCAAATT against GPD1 is entered as inactive: 0.558
For median seed-adjusted z-score, GGAGGAGAGAAAUUCGACATT against MGRN1 is entered as inactive: -0.318
For median seed-adjusted z-score, GCUGCUUCAGACUACCAAATT against TXNDC9 is entered as inactive: -0.176
For median seed-adjusted z-score, AGCCCUAUGUCAUCUCCUATT against ALDH2 is entered as inactive: -0.216

Following part

| Sequence | median seed-adjusted z-score |
| --- | --- |
| GAGCGGGAAAUAAGCCUAATT against BTN3A2 | inactive: 0.402 |
| GGAGAGAGACGUGUACAUATT against SREBF1 | inactive: -0.0469 |
| GGAAGAACUUAGUAAGUCATT against ZFP106 | inactive: 0.286 |
| CGCUCGAUUCUAUUCGCUATT against CHRNA5 | inactive: 0 |
| CGAAGAGAUUGCAAAAGUUTT against TMED10 | inactive: 0.523 |
| GAGACUUUCUACAAUACUATT against EIF4A2 | inactive: 0 |
| GGCAGUAAAGGAAAUCGAATT against JARID1B | inactive: 0 |
| CGUCUAUAUAGGGAGAAAATT against LILRB2 | inactive: -0.911 |
| CAGUCACUGAAAUAUUAGATT against NUDT4 | inactive: -0.0306 |
| GGGUAAUAAUACUAGCAAUTT against ITGA8 | inactive: -0.215 |
| CAACAGAAUAUGCCGUAUATT against SNRPA1 | active: -2.71 |
| CCACGGUCAUCAUAUGUCATT against BICC1 | inactive: -0.352 |
| CAGCUGACGUGACCCAUGATT against SLC2A1 | inactive: -0.349 |
| GGAAAUCUAGUUAUUUACATT against NME1 | inactive: 0.188 |
| CGUCAUCUCCCGUUCUCCATT against CIB1 | inactive: 0.14 |
| GCUUUGCUCUGUACCCUGATT against CTSK | inactive: 0.0972 |
| CUACCACCUCGGUUAUUUUTT against SYNPO2L | inactive: -0.47 |
| CCAGAAGUCUGGAUAGAUUTT against FIGLA | inactive: -0.064 |
| GCUCAACAACUGGGACAAATT against TBC1D10A | inactive: -0.722 |
| CUACGUUACUUUCCCUCAATT against FOXD4L6 | inactive: -0.137 |

Reprinted at random: 2 entries already listed, in no set order.

| Sequence | median seed-adjusted z-score |
| --- | --- |
| GAGGAUUACUAAUUGAUCUTT against CHM | inactive: 0.743 |
| CCCUUCUCAUUAGUAAGAUTT against TUBB4Q | inactive: -0.0288 |
